Measured values from patent US12366570B2, “Cell-based ZNT8 assay” (THE JOHNS HOPKINS UNIVERSITY, priority 2019, dated 2025).

B1: mAb20: anti-ZnT8 monoclonal antibody; heavy chain and light chain SEQ ID NOS:32 and 37 (antibody)
heavy: MDMRVPAQLLGLLLLWLRGARCQIQLVQSGPELKKPGETVKISCKASGYIFTNYPMHWVKQAPGKGLKWMGWINTYSGVPTHADDFKGRFAFSLETSANSAFLQINNLKNEDTATYFCTRSRITPTGGYAMDYWGQGTSVTVSSAKTTPPSVYPLAPGSAAQTNSMVTLGCLVKGYFPEPVTVTWNSGSLSSGVHTFPAVLQSDLYTLSSSVTVPSSTWPSETVTCNVAHPASSTKVDKKIVPRDCGCKPCICTVPEVSSVFIFPPKPKDVLTITLTPKVTCVVVDISKDDPEVQFSWFVDDVEVHTAQTQPREEQFNSTFRSVSELPIMHQDWLNGKEFKCRVNSAAFPAPIEKTISKTKGRPKAPQVYTIPPPKEQMAKDKVSLTCMITDFFPEDITVEWQWNGQPAENYKNTQPIMDTDGSYFVYSKLNVQKSNWEAGNTFTCSVLHEGLHNHHTEKSLSHSPGK
light: MDMRVPAQLLGLLLLWLRGARCDVVMTQTPLSLPVSLGDQASISCRSSQSLVHSNGNTYLHWYLQKPGQSPNLLISKVSNRFSGVPERFSGSGSGTDFTLKISRVEAEDLGVYFCSQNTHVPWTFGGGTKLEIKRADAAPTVSIFPPSSEQLTSGGASVVCFLNNFYPKDINVKWKIDGSERQNGVLNSWTDQDSKDSTYSMSSTLTLTKDEYERHNSYTCEATHKTSTSPIVKSFNRNEC
modifications: mAb20 heavy chain; mAb20 light chain
B2: mAb39: anti-ZnT8 monoclonal antibody; heavy chain and light chain SEQ ID NOS:52 and 57 (antibody)
heavy: MGWSCIMFFLVATATDVHSQVQLQQPGAELVKPGASVKLSCKASGYSFTTYWMHWVKQRPGQGLEWVGDINPRNGRTNYNEKSKSKATLTVDISSSTVYMQVSSLTSEDSAVYYCAIWSGAMDYWGPGTSVTVSSAKTTAPSVYPLAPVCGDTTGSSVTLGCLVKGYFPEPVTLTWNSGSLSSDVHTFPALLQSGLYTLSSSVTVTTWPSQTITCNVAHPASSTKVDKKIEPRGSPTHKPCPPCPAPNLLGGPSVFIFPPKIKDVLMISLSPMVTCVVVDVSEDDPDVHVSWFVNNVEVHTAQTQTHREDYNSTIRVVSALPIQHQDWMSGKEFKCKVNNKALPAPIERTISKPKGPVRAPQVYVLPPPEEEMTKKQVTLTCMITDFMPEDIYVEWTNNGQTELNYKNTEPVLDSDGSYFMYSKLRVEKKNWVERNSYSCSVVHEGLHNHHTTKSFSRSPGK
light: MKLPVRLLVLMFWIPASSSDVVMTQTPLSLPVSLGDQPSISCKSSQSLVHNNGNTYLHWYLQKPGQSPKLLIYKVSNRFSGVPDRFSGSGSGTDFTLKISRVEAEDLGVYFCSQTTHVPPTFGGGTKLEIKRADAAPTVSIFPPSSEQLTSGGASVVCFLNNFYPKDINVKWKIDGSERQNGVLNSWTDQDSKDSTYSMSSTLTLTKDEYERHNSYTCEATHKTSTSPIVKSFNRGEC
modifications: mAb39 heavy chain; mAb39 light chain

System: endogenous ZnT8 in EndoC-βH1 cells
Test: ZnT8-ELISA assay validation (signal-to-noise of mAb immunodetection)
Assay type: cell-based, human
Conditions: for signal-to-noise ratio probing endogenous ZnT8: saturating mAb concentration (1:600 dilution)

Molecule | Z′ score (95×10^3 cells) | signal-to-noise ratio probing endogenous ZnT8
B1 | 0.8 | significant signal-to-noise ratio
B2 |  | only mAb20 had a significant signal-to-noise ratio

No dose or concentration is given here for some results.
